Values of other authors, collected in patent US11013677B2, “Methods and compositions to reduce staining for antibacterial oral care compositions” (Colgate-Palmolive Company, priority 2019, dated 2021).
At least one structure is not confirmed: it was looked up by name or label, or the drawing left a doubt.

Settings: cited from earlier work

O=P(O)(O)CN(CP(=O)(O)O)CP(=O)(O)O [ATMP, aminotris(methylenephosphonic acid)]
Fe^3+ binding constant (logK): 15.87
